This passage reports binding results from publication PMC11291910.

Protein sequences, listed by entry. Tags and fused reporters are not part of them. Lines headed by an entry give the natural chain unless they say otherwise; changes in a name come on top.
UniProt Q3UYI5: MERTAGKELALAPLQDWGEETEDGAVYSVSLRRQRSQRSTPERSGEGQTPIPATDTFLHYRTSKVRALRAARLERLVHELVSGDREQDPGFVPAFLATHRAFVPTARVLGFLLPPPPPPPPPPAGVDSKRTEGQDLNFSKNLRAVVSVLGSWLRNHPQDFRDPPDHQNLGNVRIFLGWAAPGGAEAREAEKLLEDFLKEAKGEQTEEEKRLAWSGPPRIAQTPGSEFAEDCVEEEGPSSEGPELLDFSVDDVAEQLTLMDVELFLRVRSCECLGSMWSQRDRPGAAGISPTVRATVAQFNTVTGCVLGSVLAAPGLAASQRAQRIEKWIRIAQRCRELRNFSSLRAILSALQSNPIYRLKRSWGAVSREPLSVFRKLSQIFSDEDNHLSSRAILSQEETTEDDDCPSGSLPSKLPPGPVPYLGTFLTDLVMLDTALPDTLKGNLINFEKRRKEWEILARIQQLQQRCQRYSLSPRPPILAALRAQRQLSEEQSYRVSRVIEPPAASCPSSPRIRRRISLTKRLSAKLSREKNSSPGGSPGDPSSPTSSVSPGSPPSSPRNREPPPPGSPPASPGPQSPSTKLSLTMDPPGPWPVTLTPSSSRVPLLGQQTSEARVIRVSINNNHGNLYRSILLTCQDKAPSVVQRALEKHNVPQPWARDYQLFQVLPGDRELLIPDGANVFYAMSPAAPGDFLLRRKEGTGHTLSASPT
UniProt P70426: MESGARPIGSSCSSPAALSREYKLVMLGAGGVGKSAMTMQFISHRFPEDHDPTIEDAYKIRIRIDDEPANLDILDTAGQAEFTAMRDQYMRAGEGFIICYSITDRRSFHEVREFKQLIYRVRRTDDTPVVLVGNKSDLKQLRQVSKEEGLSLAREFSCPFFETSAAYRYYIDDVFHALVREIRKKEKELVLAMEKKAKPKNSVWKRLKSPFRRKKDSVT

For the test, the target named is GST-RalGDS–like 3 (RGL3)-Ras–binding domain (UniProt Q3UYI5). Kind of test: pull-down; GST fusion on Glutathione Sepharose beads incubated 2 h at 4°C with 500 μg COS-7 cell lysate (25-mM Tris–HCl pH 7.2, 150-mM NaCl, 5-mM MgCl2, 1% NP-40, 5% glycerol); four washes; Western blotting; cells co-transfected with GFP, GFP-TBC1D10A/B/C WT or GAP-deficient mutants; only the target purified. On the technique in general: Immunoblotting shows a protein as a band on a membrane.

These are yes or no findings as the source states them, for the method shown. Binding seen in cells or lysates may run through a third protein. Binding can be weak; no strength is given.

Turning to Myc-Rit1-WT (from UniProt P70426 1-219), the binding result is reported as “binds”.
